# About 3,700 (7%) of roughly 53,000 sequences were called active.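 Rule for the calls: active = gene knockdowns whose robust z-score for IL-1 alpha signal is at least 2 or at most -2, so actives lie on both sides; inactive = the rest.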 The list shows a part of the results.
# Test: Components of the Cytosolic LPS Sensing Pathway: Gene Identification via Genome-wide siRNA Screen;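 note: robust z of the log signal after scaling to non-targeting control siRNA wells of the plate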
# Details: RAW264.7 macrophages, IL-1a HTRF, actives lie on both sides, screened at 100 nM (by protocol), cells primed 5 h with Pam3CSK4 first
# In short: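 IL-1a HTRF of supernatants after 24 hour LipidA transfection of Pam3CSK4-primed (5 hours) RAW264.7 cells, 48h post-siRNA transfection (100 nM). Scores: percent of plate negative-control median, then log-based robust z-score.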
row,Sequence,z-score
1,GGUACUUCAUGAGUUGUUCTT against Flt3,inactive: -0.292
2,GGACCUGUAUCUUGAAUCCTT against Tex2,inactive: 1.55
3,GGAAUUAAACCAUUUCAGUTT against Zbtb44,inactive: 1.28
4,GGAUCAGAGUAUUUUUGUUTT against Tbx6,inactive: -0.296
5,GGAAGAGACAGAAUUAGUUTT against 9530091C08Rik,inactive: -0.638
6,GGCCAAAAAACAAUGCCCATT against Sprr4,inactive: -1.46
7,GCUAGUGAUGCUCUUACAGTT against Fat3,inactive: 1.69
8,CGAUCCACUCCCUGAUUCUTT against Gpr151,inactive: 0.264
9,CCGCUGAUGAAGAUAGAGATT against 4931414P19Rik,inactive: 0.922
10,GGUUUGACUGGCUACCUAUTT against Galnt15,inactive: -0.151
11,GGAAAAACAGCUUAACACUTT against Pate4,inactive: 0.66
12,GCUCUCAGGUCCUAAGAGATT against Ighg,inactive: 0.371
13,CGUACAAACAUAACUGUGGTT against Acp5,inactive: -1.07
14,AACUUCACUAUCUUGUUGGTT against Olfr594,inactive: 0.861
15,GGCUGUCACUUUAUAGGCATT against Wrnip1,inactive: -0.862
16,GGAGACCAGGAAGUGUUGATT against Gal,inactive: 0.103
17,GCUUUAGGUCCAUUCGGAGTT against Pkd2l2,inactive: 0.111
18,CCACUUCAGUAUUUGGCUUTT against Tas2r137,inactive: -0.404
19,GGUGUGGAAGUCAGUUUAATT against Serpinb3a,active: 2.53
20,GCUUCAAUAUCUUCGUUGCTT against Olfr1461,inactive: -1.24
21,CGGCAAAGUCCUCACAGCUTT against Ints12,inactive: -1.34
22,GCCAAUCCUUCAUAGUUUUTT against Kif18a,inactive: 0.683

row,Sequence,z-score
1,GGAUGAUGAAUGCAAUUAATT against Eed,inactive: -0.882
2,GGAAAGAAACUGCAUCGAGTT against Ccdc144b,inactive: -0.21
3,GGUACAGUACAUUGACCUATT against Adck5,inactive: 1.36
4,GGACUGAUUGAUAAAGUCATT against Srp54a,inactive: -0.458
5,GGUGUUCUGGAAGAAGAAATT against Thoc1,inactive: -0.362
6,GGUUUUUGACAACUUUCUGTT against Fxyd4,inactive: -1.6
7,GCACUAAGCUUUAUUCAUCTT against Mast2,inactive: -0.0104
8,GGAUGUUGGUAGACUUCUUTT against Olfr732,inactive: 0.558
9,GGCCAAUCUAUGCUGUCCCTT against Rnf168,inactive: -0.767
10,GGACCAAGAGGACAUUACCTT against Tbl3,inactive: -0.971
11,GCUUAUGAGGCUCAGCAUUTT against Pigh,inactive: 1.29
12,AGAAGUCCUCAAAAUGACCTT against Vmn1r181,inactive: -1.02
13,GGAGAGUUUAUCAGACAGUTT against Shmt2,inactive: 0.45
14,CGUUUAAAGACUAGCAAGATT against Tab1,inactive: 0.0468
15,GCUCUGAUUCAUUACUAUUTT against Mansc1,inactive: 0.671
16,GGGACUUUCCCACUCAAAATT against Olfr1295,inactive: -0.68
17,GCCUAACCUGGUAUCCCAGTT against Zfp92,inactive: -1.03
18,GGGUGAAGAAUCUUUUUGUTT against Olfr676,inactive: 0.323
19,GGUGGAAUAACAGAUAAAATT against Cutc,inactive: 0.255
20,GCAGGUUCGAAAAUCAAUGTT against Upf3b,inactive: -0.0474
21,GUAUAGUGUAUCUCAUCAUTT against Olfr1107,inactive: 1.56
22,GGUUUUCCCACAUGUCAGATT against Zmat5,inactive: 0.805

# An excerpt of these results, as tab-separated lines:
row	Sequence	z-score
9	CCGCUGAUGAAGAUAGAGATT against 4931414P19Rik	inactive: 0.922
10	GGUUUGACUGGCUACCUAUTT against Galnt15	inactive: -0.151
11	GGAAAAACAGCUUAACACUTT against Pate4	inactive: 0.66
12	GCUCUCAGGUCCUAAGAGATT against Ighg	inactive: 0.371
13	CGUACAAACAUAACUGUGGTT against Acp5	inactive: -1.07
14	AACUUCACUAUCUUGUUGGTT against Olfr594	inactive: 0.861
15	GGCUGUCACUUUAUAGGCATT against Wrnip1	inactive: -0.862
16	GGAGACCAGGAAGUGUUGATT against Gal	inactive: 0.103
17	GCUUUAGGUCCAUUCGGAGTT against Pkd2l2	inactive: 0.111
18	CCACUUCAGUAUUUGGCUUTT against Tas2r137	inactive: -0.404
19	GGUGUGGAAGUCAGUUUAATT against Serpinb3a	active: 2.53
20	GCUUCAAUAUCUUCGUUGCTT against Olfr1461	inactive: -1.24
21	CGGCAAAGUCCUCACAGCUTT against Ints12	inactive: -1.34
22	GCCAAUCCUUCAUAGUUUUTT against Kif18a	inactive: 0.683
1	GGAUGAUGAAUGCAAUUAATT against Eed	inactive: -0.882
2	GGAAAGAAACUGCAUCGAGTT against Ccdc144b	inactive: -0.21
3	GGUACAGUACAUUGACCUATT against Adck5	inactive: 1.36
4	GGACUGAUUGAUAAAGUCATT against Srp54a	inactive: -0.458
5	GGUGUUCUGGAAGAAGAAATT against Thoc1	inactive: -0.362
6	GGUUUUUGACAACUUUCUGTT against Fxyd4	inactive: -1.6
7	GCACUAAGCUUUAUUCAUCTT against Mast2	inactive: -0.0104
8	GGAUGUUGGUAGACUUCUUTT against Olfr732	inactive: 0.558
9	GGCCAAUCUAUGCUGUCCCTT against Rnf168	inactive: -0.767
10	GGACCAAGAGGACAUUACCTT against Tbl3	inactive: -0.971
11	GCUUAUGAGGCUCAGCAUUTT against Pigh	inactive: 1.29
12	AGAAGUCCUCAAAAUGACCTT against Vmn1r181	inactive: -1.02
13	GGAGAGUUUAUCAGACAGUTT against Shmt2	inactive: 0.45
14	CGUUUAAAGACUAGCAAGATT against Tab1	inactive: 0.0468
15	GCUCUGAUUCAUUACUAUUTT against Mansc1	inactive: 0.671
16	GGGACUUUCCCACUCAAAATT against Olfr1295	inactive: -0.68

# Further entries follow.

row,Sequence,z-score
1,GGACAUGUCGGUUUUGUGCTT against Lrrc8e,inactive: -0.755
2,GGUCAUCAGCUCUAUGAGCTT against Fry,inactive: 0.0787
3,GGUCAAUGGCAUGUUGAUCTT against Mc2r,inactive: 0.334
4,GGAAGCUGUCUUCAAGUCCTT against Phf7,inactive: -1.3
5,GGAUUACGGAUCCAAAGUCTT against Eif2b4,inactive: 1.82
6,GGGCACAGAGUGUAUCAUCTT against Wap,inactive: 0.969
7,GCCAAGUCAACCAUAGAAUTT against Setx,inactive: -0.0566
8,CCUCUGUUGAACCAUCAUUTT against Gpr21,inactive: 0.127
9,GGUACCUCUUCUCCUAAAGTT against Vps16,inactive: 0.106
10,GGAUGAAUGCAGCUUCCAUTT against Myh14,active: 2.35
11,GGACAAACAGGGUUAUUUATT against Srrm4,inactive: 0.277
12,GGAUCUUUCCAGGUUACAATT against Dmrta1,inactive: -0.803
13,GGAUGAGAAUGGGAAGAUUTT against Naa10,inactive: -0.38
14,GGUUAUCGUUCAGUUGGUCTT against Nfkb1,inactive: 0.499
15,CCAAUGAUGGAGCUGAAGCTT against Ranbp1,active: -2.72
16,GCGAGCGGUUGACUUGUGUTT against Ftsj1,inactive: 0.732
17,GCAUCUUAGGCAUUGCUAGTT against Pcna,inactive: -0.156
18,GGCUGUGCUCAGGAUCAAATT against Olfr683,active: 2.37
19,CCUGAUUGGGAUCUCAAGATT against Ccdc12,inactive: -0.673
20,GGUCUCAUCGCUUGAUACUTT against Pcdhgb6,inactive: 0.959
21,GGACCAGCUUGAAGCUGAATT against Atl2,inactive: 0.388
22,CCUAUUUUGGUAAGAUAGATT against Rasl12,inactive: -0.56

row,Sequence,z-score
1,GCAGGAAGAAUGUUUUUCUTT against LOC626846,inactive: -0.534
2,CCAGACAUGAUACUCCGGCTT against Tssk3,active: 2.57
3,GGAACAGUACCUUUUUGUGTT against Dnase1,inactive: 0.48
4,GGACCUACUACGUAAACCATT against Nedd4,inactive: 0.434
5,GGGUUCAAGAGAUGAUAUUTT against Usp11,inactive: 0.245
6,GGUCCUUGCAUUUCAUCAATT against A630005I04Rik,inactive: 1.6
7,GCUUGAGAAGACCACCAAATT against Cypt1,inactive: -1.7
8,CCCUUUUGAAAUUCUGACCTT against Zfp46,inactive: -0.491
9,GCUAUCGGUGUCCUGACCATT against Pfkp,inactive: -0.574
10,GGAGACGUGAUUGAAAGGGTT against Fabp6,inactive: -1.21
11,GGAGGACAUCAAUAAAACATT against Slc2a10,inactive: 0.038
12,GGCGGCCUUAGUAGAUAUCTT against Acsl4,inactive: 0.677
13,CGUCCAGAGACCAUUAUAATT against Pibf1,inactive: 1.2
14,GCGGCAACAUUCUCUUAAGTT against Nuak2,inactive: 1.12
15,GGUCUGCUGUUGAUCGUUCTT against Sct,inactive: 1.72
16,GGACAACCAGCUCAUUGUGTT against Cd82,inactive: -1.09
17,CCAAUUCUACCUAUUACAGTT against Shroom2,inactive: 0.833
18,GGAAUGAACUCUUUGAAAATT against Opa1,inactive: 0.376
19,GGAAGUCCACGAAACUAAATT against Prl3d1,inactive: 0.359
20,GCCUGAUGUACAUCACCACTT against Olfr615,inactive: -0.701
21,GGACCUGAAAAUCAAAUGATT against Arpc1b,inactive: 1.3
22,GGCCAAAUAACCUAGUAAUTT against Rpf2,inactive: 1.15

row,Sequence,z-score
1,GGGAGGCAAGCAUAAGACUTT against Cycs,inactive: -0.116
2,GGAGAAGAUGGAGAAGACCTT against Cavin1,inactive: 0.946
3,GCCAUUGUUGCUUACUCGGTT against Hspa14,inactive: 0.284
4,GGUGCUGCCCUGUCUAUUGTT against Slc38a8,inactive: 0.425
5,GGAUCAUGGAUAUACCACCTT against Smarcb1,inactive: -1.72
6,GGUUUUAUCAGAUCCCAAGTT against Dclre1c,inactive: 1.02
7,CCCUUUAGCUUCCUAAUGUTT against Rhag,inactive: 0.11
8,GGCAAUAAAUGCUGAGUUATT against Fbxo15,inactive: 0.664
9,GGCUAAAACAAGUGAAUGGTT against Gli3,inactive: -0.619
10,GGGUAUGAUUAAAAGGUAATT against Mstn,inactive: -1.96
11,GGAGCUGUAUCGCACGAAATT against Ehd2,inactive: -0.689
12,CCACUAAGUCCCAUGCUAGTT against Glycam1,inactive: 0.188
13,GGCAGGCUAACGAAGAAUATT against Tusc3,inactive: 0.309
14,CGGAUUCGGGAAUUCUAUCTT against Pcgf1,inactive: 0.143
15,GCCUUGUACCCUGUAGUGATT against Lalba,inactive: -0.39
16,GGCCAAUCAAGAUAGCCACTT against Dnajc1,inactive: 1.12
17,GGUGAAAAACUAGCUUAAATT against Zfp263,inactive: -0.0611
18,GCAAGUCACUUUGGUACCATT against Anxa1,inactive: 0.879
19,GAGAUCAGCUUCAAUGCUUTT against Olfr564,inactive: 0.899

# — PubChem BioAssay AID1508600 (Functional Genomics Laboratory (NCATS/FGL), 2020)
